Patent publication US9549886B2, “Personal care formulations containing alkyl ketal esters and methods of manufacture” (SEGETIS, INC., priority 2010, dated 2017)
Several values for one entry are separate records, joined by “and”; a condition that tells them apart may be missing. Equal values may be shown once. At least one compound was matched to its structure with a doubt left. Some entries share one result that the patent states for a list of compounds.

Assay: Solubility of active agents in neat alkyl ketal esters (dissolution, storage at room temperature)
Conditions: for soluble to the extent of: in ethyl-LGK, ethyl-LPK, n-Bu-LGK, or a combination thereof

COC1=C(OC)C(=O)C(C/C=C(\C)CC/C=C(\C)CC/C=C(\C)CC/C=C(\C)CC/C=C(\C)CC/C=C(\C)CC/C=C(\C)CC/C=C(\C)CC/C=C(\C)CCC=C(C)C)=C(C)C1=O [Coenzyme Q10, Ubiquinone]
soluble to the extent of: at least 5 parts per 95 part

CC1=C(/C=C/C(C)=C/C=C/C(C)=C/C(=O)O)C(C)(C)CCC1 [Retinoic acid]
% solids in Bu-LGK that did not (completely) dissolve (solvent Bu-LGK, insoluble, dispersion or partially dissolved): 0.5%
% solids dissolved in Bu-LGK at room temperature, no precipitation (solvent Bu-LGK, still soluble after 24 hours / 1 day at room temperature): 0.25%
% solids dissolved in Et-LGK with heat, no precipitation (solvent Et-LGK, dissolved at 35-80° C., still soluble after storage at room temperature (24 hours to 5 days) where stated): 2.2%
% solids in Et-LPK that did not (completely) dissolve or precipitated at room temperature (solvent Et-LPK, insoluble, not completely dissolved or precipitated on room temperature storage): 1.88%
% solids dissolved in Et-LPK at room temperature, no precipitation (solvent Et-LPK, still soluble after 24 hours / 1 day at room temperature where stated): 0.5% and 0.84%

COc1ccc(C(=O)c2ccccc2)c(O)c1 [oxybenzone, Oxybenzone]
soluble to the extent of: at least 5 parts per 95 part
